Out of some 31,000 sequences screened, about 1,400 (4.5%) were called active.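 Rule for the calls: active = median seed-adjusted z-score above 1 or below -1; inactive = the rest.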 The list shows a part of the results.
Assay: Novel Modifiers of Survival Motor Neuron (SMN) Protein: Gene Identification via Genome-wide siRNA Screen;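 note: luminescence tracks full-length SMN protein made from the SMN2 reporter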
Settings: HEK293T SMN2-luciferase reporter, siRNA knockdown, 72 h; actives lie on both sides
How it was run: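 HEK293T cells stably expressing an SMN2 splicing/cDNA-luciferase reporter were reverse-transfected with a druggable-genome siRNA library and read by luminescence at 72 hours; hits defined by MAD score above 1.0 or below -1.0.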

Sequence	median seed-adjusted z-score
CGAUUACUCCAAAUGUAAATT against EIF2B1	inactive: 0.206
CCGUGUUUCUGAGCUAGAATT against CLTCL1	inactive: 0.341
GUCUCACUGUAGAUCCUGATT against SCYL1	inactive: 0.0409
CCACAACGGACAGUCCAUATT against CYP17A1	active: -1.39
GCAUAAUUGUCAGCCGUAUTT against SCML1	inactive: 0.575
GGCCUCUCCCUGUAUGAAATT against GON4L	inactive: 0.116
GUACCUGCCUGUAACUCUATT against GANAB	inactive: 0.269
GCGUGAUGAGAUCCUGUUATT against ALDH18A1	inactive: 0.116
ACACGUACCCUACAUCUUATT against EPHB6	inactive: -0.0275
GAACAAUGCUGAGUUGAAUTT against CPB1	inactive: -0.376
GGAAUACCUCUACUAACAATT against RAGE	inactive: -0.154
GUGCCUUACUUGAUAUGGATT against STXBP4	inactive: -0.565
GAGGCAACUUUUAAGCUGATT against OLAH	inactive: -0.44
AAGGCUACUUAACAAAGGATT against S100A10	inactive: 0.366
GGAAAACCUUUACACGUAATT against ZNF445	inactive: -0.0752
GCAUCGUGAUCGUUCCAAUTT against CHD1L	inactive: 0.63
GCUACAAGAUGACACCUCATT against BCL2L12	inactive: -0.77
CCUAUAAGGAGAUUUCAUATT against BCL2A1	inactive: 0.0557
CAUUGGAAAUUACGAGAAATT against APPBP2	inactive: -0.0432
CCAUCUUUCUCAAGCUCGATT against CNTNAP2	inactive: -0.196
UGAAGUGCAUCAACCACUATT against EFEMP2	inactive: -0.143
CUUUGACUAUAAGGACAAATT against CYP2A6	inactive: 0.117
CCAAUACACUAGCAGUUAATT against TCP1	active: -1.02

Sequence	median seed-adjusted z-score
GGACCUGUCUUGUGGUUCATT against SIRPD	inactive: -0.257
GAGUAUCCACAGAAGUAGATT against TALDO1	inactive: 0.131
GGCUAUAAUAGACACGAGATT against CDH6	inactive: 0
GGAUCACAACCGAGCUAAATT against MDH1	inactive: -0.154
UGAUAGAGAUCAACCCAUATT against PSMB5	active: -1.37
GCAGUGCUCCUACAUCCCATT against KCNMB1	inactive: -0.465
GCUACGACGUGAACGGCAATT against PCSK6	inactive: 0
GCAUUGACCAUCUAUGAGATT against IFNB1	inactive: 0
CCUUUGAUCCUAAGCCCAUTT against GLUL	inactive: -0.307
CCUGAUUACUAUAAGAUCATT against BRD4	active: 1.13
UCCUUUUCCUCAAGCUCUATT against MGAT3	inactive: -0.118
CGUAGUCCAUGUGAAGUCATT against IDH3B	inactive: -0.642
GGAAGACACUGUUCGAUCATT against GDAP2	inactive: 0.199
CGACUGUCCUUCUAUGAGATT against NOP56	inactive: 0.307
GAAGGCGGUUAUACAAUUATT against ACSL4	inactive: -0.0582
GAAUCUAUCCCAUUGAUCUTT against DDX1	inactive: 0.507
CAGCCUUCAUGAGAUGUUATT against AMPD3	inactive: -0.0865
CCUUAGCGGUAGUAACUUUTT against MGP	inactive: -0.0854
GCGACCAACUGAUUGUCGATT against PTPRZ1	active: 1.73
GCUAUGUCAUCACUACCAATT against KCNAB3	inactive: 0.0697
CAUCGUGGGCGUGAACAAATT against EEF1A2	inactive: -0.64
GUUCUUCACUUCAGGAACATT against AGPAT2	inactive: 0.38
GAAUAGUGUUCGGAUUGGATT against ST8SIA3	inactive: -0.848

Part of the list above, comma-delimited.
Sequence,median seed-adjusted z-score
CCGUGUUUCUGAGCUAGAATT against CLTCL1,inactive: 0.341
CCACAACGGACAGUCCAUATT against CYP17A1,active: -1.39
GCAUAAUUGUCAGCCGUAUTT against SCML1,inactive: 0.575
GUACCUGCCUGUAACUCUATT against GANAB,inactive: 0.269
ACACGUACCCUACAUCUUATT against EPHB6,inactive: -0.0275
GCUACAAGAUGACACCUCATT against BCL2L12,inactive: -0.77
CCAUCUUUCUCAAGCUCGATT against CNTNAP2,inactive: -0.196
UGAAGUGCAUCAACCACUATT against EFEMP2,inactive: -0.143
CUUUGACUAUAAGGACAAATT against CYP2A6,inactive: 0.117
GAGUAUCCACAGAAGUAGATT against TALDO1,inactive: 0.131
GCAGUGCUCCUACAUCCCATT against KCNMB1,inactive: -0.465
GCAUUGACCAUCUAUGAGATT against IFNB1,inactive: 0
CCUUUGAUCCUAAGCCCAUTT against GLUL,inactive: -0.307
UCCUUUUCCUCAAGCUCUATT against MGAT3,inactive: -0.118
CGUAGUCCAUGUGAAGUCATT against IDH3B,inactive: -0.642
CGACUGUCCUUCUAUGAGATT against NOP56,inactive: 0.307
CAGCCUUCAUGAGAUGUUATT against AMPD3,inactive: -0.0865

Remaining list, next part.

Sequence	median seed-adjusted z-score
GCAUUAAAAGCUACUUUCATT against ETS1	inactive: -0.0588
ACCGACUCAUGAGACAUAATT against ZNF548	inactive: -0.508
AGACCAAGGUCAACGUGCATT against FLRT1	inactive: -0.00451
GCACACUGCAUACAACCGATT against ESSPL	inactive: 0.328
CAAUUGGAAUCGUCUUUUUTT against UBAC2	inactive: 0.611
AAGACAUGAUGUUCCACAATT against ADCY6	inactive: -0.0652
CCAUCGGCAUCACCUUCUATT against SLC35C2	inactive: -0.483
GAGCCGUGGUUUUAAGGAUTT against EIF4A2	inactive: 0
AGAUCCUCCUGUACAUAGATT against CYP4F3	inactive: -0.336
GGAUGGAGCUUCACACGAUTT against RGL2	inactive: 0.174
CACUGAUAACCAACACUGATT against ST14	inactive: -0.534
GUGUUUGACGGGAAACAAATT against CD8A	inactive: 0.777
GAAUGCAUGUGAUCACCUATT against SF3B14	active: -1.26
GUAUCGAAGAAGUGAUAAATT against ALDH1A3	inactive: 0.228
GGUCCAAUUUAACCAACUATT against TEKT3	inactive: 0.0494
GCAUGUAAUGAGUAUCACATT against MRS2	active: 1.38
GCAACUACAAGGCUAUAUUTT against FRK	inactive: -0.14
CCAGGCCAACAAUUGCCAGTT against AMH	inactive: -0.255
GUUAUACCUUAGUUACUUUTT against FUT9	inactive: 0.0444
CUAUCUAGGCUAUUCAAUATT against RHOT1	inactive: -0.189
CCAUCAUACCUUCUUUGAATT against AARS2	inactive: -0.52
CAGUCAAGACUUUACCACUTT against CLCN1	inactive: 0.314
GGCUUGGAUCAAUCUAAGATT against HNRNPL	active: 1.04

From PubChem BioAssay AID1347426 (Functional Genomics Laboratory (NCATS/FGL), 2020)
